Assay [1] has as its target T1, SHARPIN (Shank-associated RH domain interacting protein) (human (endogenous in A549)) (UniProt Q9H0F6).
T1 sequence: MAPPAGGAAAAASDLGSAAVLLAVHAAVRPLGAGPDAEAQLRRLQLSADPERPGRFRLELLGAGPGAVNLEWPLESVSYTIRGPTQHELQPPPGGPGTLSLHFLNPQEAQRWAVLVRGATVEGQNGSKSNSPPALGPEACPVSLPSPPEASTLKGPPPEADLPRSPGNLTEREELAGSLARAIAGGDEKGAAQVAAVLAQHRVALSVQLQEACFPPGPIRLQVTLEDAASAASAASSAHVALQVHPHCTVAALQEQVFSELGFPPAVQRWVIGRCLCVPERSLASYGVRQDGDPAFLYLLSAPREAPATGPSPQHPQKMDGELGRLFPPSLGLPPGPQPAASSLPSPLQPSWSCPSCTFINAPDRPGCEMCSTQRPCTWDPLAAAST
The assay can be described thus: co-IP; A549 cell lysates, endogenous proteins; protein A-agarose beads with SHARPIN or PRMT5 rabbit antibody, 4°C overnight, no-antibody (NA) control; western blot. On the technique in general: Immunoblotting shows a protein as a band on a membrane.

The chains behind the UniProt entries cited, without tags or fusion partners.
UniProt Q9UBL3: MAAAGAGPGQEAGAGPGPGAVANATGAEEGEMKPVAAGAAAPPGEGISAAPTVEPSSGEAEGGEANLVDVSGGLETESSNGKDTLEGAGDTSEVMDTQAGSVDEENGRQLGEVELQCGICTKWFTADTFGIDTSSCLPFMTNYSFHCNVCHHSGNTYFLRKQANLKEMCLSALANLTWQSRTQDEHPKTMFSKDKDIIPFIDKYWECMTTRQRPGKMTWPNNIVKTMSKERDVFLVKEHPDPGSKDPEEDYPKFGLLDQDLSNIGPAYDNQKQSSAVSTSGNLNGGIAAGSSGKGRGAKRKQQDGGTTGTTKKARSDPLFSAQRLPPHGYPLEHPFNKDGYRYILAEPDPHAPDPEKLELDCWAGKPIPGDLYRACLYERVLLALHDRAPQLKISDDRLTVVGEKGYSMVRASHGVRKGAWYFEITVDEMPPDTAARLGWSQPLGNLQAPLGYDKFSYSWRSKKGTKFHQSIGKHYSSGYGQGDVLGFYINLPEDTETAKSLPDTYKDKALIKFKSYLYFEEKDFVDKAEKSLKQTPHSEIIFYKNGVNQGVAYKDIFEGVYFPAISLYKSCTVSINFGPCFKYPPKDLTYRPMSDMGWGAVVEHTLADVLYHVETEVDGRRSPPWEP
UniProt O14744: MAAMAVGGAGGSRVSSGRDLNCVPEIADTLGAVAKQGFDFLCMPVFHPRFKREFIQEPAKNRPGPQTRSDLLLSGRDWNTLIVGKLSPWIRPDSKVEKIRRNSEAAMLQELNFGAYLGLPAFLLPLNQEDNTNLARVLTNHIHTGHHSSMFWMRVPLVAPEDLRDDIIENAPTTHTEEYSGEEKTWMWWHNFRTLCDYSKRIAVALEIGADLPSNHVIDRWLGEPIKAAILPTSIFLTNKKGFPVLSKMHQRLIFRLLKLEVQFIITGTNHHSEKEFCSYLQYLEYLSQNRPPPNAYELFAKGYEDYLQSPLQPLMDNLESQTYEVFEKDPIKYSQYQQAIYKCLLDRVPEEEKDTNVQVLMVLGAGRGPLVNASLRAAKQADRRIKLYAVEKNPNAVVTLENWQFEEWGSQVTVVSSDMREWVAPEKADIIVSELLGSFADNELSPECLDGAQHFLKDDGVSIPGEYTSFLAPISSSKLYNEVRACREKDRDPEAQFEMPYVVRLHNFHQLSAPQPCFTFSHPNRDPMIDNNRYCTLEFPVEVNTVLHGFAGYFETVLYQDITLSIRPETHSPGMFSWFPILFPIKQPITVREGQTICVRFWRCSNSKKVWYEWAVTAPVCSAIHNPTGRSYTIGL

In assay [2] the target is ASH2 (human (endogenous in A549)) (UniProt Q9UBL3). Nature of the assay: Re-ChIP (sequential chromatin immunoprecipitation); A549 cells cross-linked with 1% formaldehyde, sonicated; 1st round pull down with ASH2, WDR5, HCFC1 or RBBP5 antibody, 2nd round with PRMT5 antibody; read out by qPCR of VIM (-1 kb); also in cells depleted of GFP (ctr) or SHARPIN.

These are yes or no findings as the source states them, for the method shown. For some assays here: Binding seen in cells or lysates may run through a third protein. Some results given as binding are weak or reduced against the parent protein; the word gives no strength.

Take “PRMT5 (Protein arginine methyltransferase 5) (from UniProt O14744 1-637) (enzyme)”: the binding entry in assay [1] and in assay [2] was “binds” in each case.

The values are drawn from article PMC5589623.
